Test results as given in PubChem BioAssay AID330 (DTP/NCI, 2004).
The list is a part of this screen's results and no random one: it is rich in T/C values a quarter to a half above the control, in often repeated tests (any T/C) and in doses without a T/C. Further doses and runs are listed elsewhere. T/C gives the treated animals as a percentage of the vehicle group. Some doses have a count of surviving animals in place of a T/C: the source holds a T/C of zero for them, seemingly a mark for toxic or unscored doses. Some doses without a T/C left all or most animals alive at the check, yet need not have been tolerated: survival well below the control is almost never listed, so the zero probably covers shortened survival too. Survivors were counted at the toxicity check, usually on the fifth day, unless a day is given; later deaths do not show. Schedule codes are those of the source, taken here to give the interval after Q, in days (D) or hours (H), and the number of doses after X. For survival time, the PubChem record calls one and a half times the control and up active, and a quarter to a half above the control has no call in these data; cut-offs in other NCI protocols can differ. Some T/C values are followed by the survivors on the day toxicity was checked, most often the fifth; without a count, all were alive then. Some entries hold several experiments; the results are listed from low to high.

System: P388 leukemia ip, CD2F1 mice, survival T/C
Assay: NCI In Vivo Anticancer Drug Screen. Data for tumor model P388 Leukemia (intraperitoneal) in CD2F1 (CDF1) mice
Settings: T/C endpoint: median survival time, higher T/C = longer survival; for T/C: vehicle: saline

In the case of `COC1OC2COC(c3ccccc3)OC2C(O)[CH]1[Hg][O]C(C)=O` (configuration not stated), the survivor count (dose: 3.13 mg/kg/injection, schedule: Q01DX009 (ip), vehicle: water) is reported as 5 of 5, the survivor count (dose: 6.25 mg/kg/injection, schedule: Q01DX009 (ip), vehicle: water) is reported as 5 of 5 and the survivor count (dose: 12.5 mg/kg/injection, schedule: Q01DX009 (ip), vehicle: water) is reported as 3 of 5. The survivor count (dose: 25.0 mg/kg/injection, schedule: Q01DX009 (ip), vehicle: distilled water + Tween-80) was 2 of 6, the survivor count (dose: 25.0 mg/kg/injection, schedule: Q01DX009 (ip), vehicle: water) was 0 of 5 and the survivor count (dose: 50.0 mg/kg/injection, schedule: Q01DX009 (ip), vehicle: distilled water + Tween-80) was 0 of 6. The survivor count (dose: 50.0 mg/kg/injection, schedule: Q01DX009 (ip), vehicle: water) was 0 of 5.

In the case of `CCCOc1ccc(C(N)=S)cc1`, the survivor count (dose: 100.0 mg/kg/injection, schedule: Q01DX009 (ip), vehicle: Klucel (hydroxypropylcellulose) (HPC)) is reported as 6 of 6 and the survivor count (dose: 200.0 mg/kg/injection, schedule: Q01DX009 (ip), vehicle: Klucel (hydroxypropylcellulose) (HPC)) is reported as 0 of 6.

In the case of `N/C(=N/O)NO`, the T/C (dose: 100.0 mg/kg/injection, schedule: Q01DX005 (ip)) is reported as 125 % of control and the T/C (dose: 200.0 mg/kg/injection, schedule: Q01DX005 (ip)) is reported as 127 [5 of 6 alive] and 145 % of control.

For `CC(C)C(NC(=O)[C@H](C(C)C)N1C(=O)c2ccccc2C1=O)C(=O)O` (some centres not stated), the survivor count (dose: 200.0 mg/kg/injection, schedule: Q01DX005 (ip), vehicle: saline with Tween-80) was 5 of 5.
